The assay deals with CK2β, regulatory β subunit of protein kinase CK2 (human (endogenous in MCF-7 Tam1)) (UniProt P67870). Description: co-IP; Pierce Classic IP Kit; 1 mg lysate of MCF-7 Tam1 cells, precleared, overnight at 4 °C with antibodies to ERα, HSP90 or CK2β or normal IgG, protein A/G plus-agarose, immunoblot; cells with or without 5 µM CX-4945 (4 h in the legend, 8 h in the text). (In general: In western blotting, separated proteins are transferred to a membrane and probed.)

The chains behind the UniProt entries cited, without tags or fusion partners. Where a name states a change or a piece, a line headed by the entry shows the natural chain unless it says otherwise. A line that says so, or that is headed by a name, gives the form on record, which may keep a tag or linker.
UniProt P67870: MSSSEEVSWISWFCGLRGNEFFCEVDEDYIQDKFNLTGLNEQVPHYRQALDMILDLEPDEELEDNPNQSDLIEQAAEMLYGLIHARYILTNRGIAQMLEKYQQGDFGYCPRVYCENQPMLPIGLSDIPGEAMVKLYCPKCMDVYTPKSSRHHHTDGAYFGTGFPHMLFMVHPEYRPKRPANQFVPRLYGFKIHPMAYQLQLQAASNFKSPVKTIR
ERα36, 36 kD variant of estrogen receptor α (P03372-4, form named): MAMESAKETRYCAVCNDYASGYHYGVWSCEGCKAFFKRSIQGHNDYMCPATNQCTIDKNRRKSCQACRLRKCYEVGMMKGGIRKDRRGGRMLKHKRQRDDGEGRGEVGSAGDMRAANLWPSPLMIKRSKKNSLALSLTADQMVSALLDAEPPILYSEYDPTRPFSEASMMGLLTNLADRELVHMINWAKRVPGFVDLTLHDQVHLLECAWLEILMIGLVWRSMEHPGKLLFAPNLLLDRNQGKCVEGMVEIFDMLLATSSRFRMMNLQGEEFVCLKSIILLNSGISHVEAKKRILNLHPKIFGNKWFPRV

These are yes or no findings as the source states them, for the method shown. In cells and extracts the contact can be indirect.

In the case of “ERα36, 36 kD variant of estrogen receptor α (from UniProt P03372-4 1-310)”, the binding result is “no binding”.
To “Estrogen receptor α, full-length receptor (ERα66) (from UniProt P03372-1 1-595)” belongs “no binding”.
